Among all 340,000 compounds or so, about 170 (0.05%) were called active. Inconclusive means that the source gave no clear call. Such entries were picked first, then a sample of the others. Calls come from the whole dose curve; as a rule, active = well fitted inhibition curve with a large enough effect in the signal ratio, with a control signal flat (not every such curve was filed as active); inconclusive = small, poorly fitted or top-dose-only effect, or effect the other way, or a change in a side signal; inactive = flat fitted curve, though single readings scatter; the % refers to the signal ratio. Where the call is inconclusive, the potency comes from a doubtful curve fit.
Assay: qHTS Assay to Find Inhibitors of Chronic Active B-Cell Receptor Signaling;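 for activity change, negative = inhibition: plate controls were basal doxycycline-induced cells for no effect and cells given 10 µM MG132 for full effect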
Settings: ABC-DLBCL IkBa-CBG/CBR reporter, luminescence ratio (green luciferase fused to IkBa over red control in TMD8 lymphoma cells), 4 h; activity change, negative = inhibition: at 46.1 µM (top of the series)
Summary of the method: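 Cell line TMD8 (human ABC DLBCL), stably expressing tet-inducible CBG68-IkBa fusion and CBR; IMDM/0.5% FBS; cpd up to 46 uM; dox induction, 4 h, 37C/5% CO2; dual luminescence; green/red ratio; MG132 control.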
Potency is the fitted concentration of half-maximal effect.

For Cc1c(C(=O)N2CCNCC2)oc2ccccc12, which activity change, negative = inhibition is on record?
Its activity change, negative = inhibition is inconclusive: -8.04%.

For O=C(N/N=C/c1ccc([N+](=O)[O-])cc1)c1cccs1, which Potency is on record?
The Potency was inconclusive: 31.6 µM [rising, single point].

Which activity change, negative = inhibition does the source give for CC(=O)Nc1ccc(S(=O)(=O)NC2=NCN(CCOC(=O)c3ccccc3)CN2)cc1 here?
The activity change, negative = inhibition was inconclusive: 12.3%.

For COc1ccccc1C(CNc1nc(C(F)(F)F)nc2ccccc12)N(C)C (centres undefined), which activity change, negative = inhibition is on record?
Its activity change, negative = inhibition is inconclusive: 8.14%.

For CCOC(=O)c1c(C(=O)OCC)c(C)n(N2C(=O)CSC2=S)c1C, which “activity change, negative = inhibition” value is on record?
The value was inactive: 1.2%.

For CC(C)(C)OC(=O)NC(Cc1ccccc1)C(=O)O (centres undefined), which Potency is on record?
Its Potency is inconclusive: 35.5 µM [falling, single point].

With Cc1ccc(N(C)C(=O)N2CCN(S(=O)(=O)c3ccc(C)cc3)CC2)cc1 as the molecule, how does the activity change, negative = inhibition read?
Its activity change, negative = inhibition is inconclusive: 8.68%.

With Cc1cc(/C=N/Nc2ccc([N+](=O)[O-])cn2)c(C)n1-c1cccc(C(=O)O)c1 as the molecule, how does the Potency read?
The Potency was inconclusive: 15.8 µM [rising, partial curve, poor fit].

Which “activity change, negative = inhibition” value does the source give for CCCCn1nnnc1SCC(=O)Nc1sc2c(c1C#N)CCCC2 here?
Its value is inactive: 9.2%.

Which “activity change, negative = inhibition” value does the source give for O=C(c1cc2ccccc2cc1OCC(O)CN1CCCCC1)N1CCCCC1 (centres undefined) here?
Its value is inactive: 1.33%.

For COc1ccccc1OCC(O)Cn1c(=N)n(CCN2CCCCC2)c2ccccc21 (centres undefined), which activity change, negative = inhibition is on record?
The activity change, negative = inhibition was inconclusive: -29.8%.

For O=C(c1ccccc1)c1cccc(NC(=O)C2CC2)c1, which activity change, negative = inhibition is on record?
Its activity change, negative = inhibition is inconclusive: 24.3%.

Which activity change, negative = inhibition does the source give for COc1ccc(/C=N/Nc2ncc(C(F)(F)F)cc2Cl)cc1OC here?
The activity change, negative = inhibition was inconclusive: 1.58%.

Which activity change, negative = inhibition does the source give for COc1ccc(Cc2nc(-c3ccccc3)no2)cc1 here?
Its activity change, negative = inhibition is inconclusive: 6.13%.

With O=S(=O)(Nc1c(F)cccc1F)c1ccc(Cl)nc1 as the molecule, how does the “activity change, negative = inhibition” value read?
Its value is inactive: -8.37%.

With Cc1nc(NS(=O)(=O)c2ccccc2)sc1C(C)(C)C as the molecule, how does the “activity change, negative = inhibition” value read?
Its value is inactive: -0.347%.

With COc1ccc(C(=O)CCNc2ccc(F)cc2)cc1 as the molecule, how does the activity change, negative = inhibition read?
The activity change, negative = inhibition was inconclusive: 5.68%.

Which activity change, negative = inhibition does the source give for Cc1ccc2nc(SCC(=O)c3c(N)n(C4CC4)c(=O)[nH]c3=O)[nH]c2c1 here?
The activity change, negative = inhibition was inconclusive: -2.91%.

Which activity change, negative = inhibition does the source give for Cc1ccc2nc(Cl)c3nnnn3c2c1 here?
The activity change, negative = inhibition was inconclusive: 14.2%.

Which Potency does the source give for Cc1ccccc1NC(=O)c1nc2nccc(C)n2n1 here?
Its Potency is inconclusive: 22.4 µM [falling, single point].

Which activity change, negative = inhibition does the source give for Cn1cnnc1SCC(=O)Nc1ccc(F)cc1F here?
Its activity change, negative = inhibition is inconclusive: -21.5%.

Which Potency does the source give for C/C(=N\NC(=O)CC1N=C(Cc2ccccc2)NNC1=O)c1ccc(Cl)cc1Cl (centres undefined) here?
Its Potency is inconclusive: 15.8 µM [falling, single point].

For COc1ccc2cc(C3(C)NC(=O)N(CC(=O)NCCC4=CCCCC4)C3=O)ccc2c1 (centres undefined), which activity change, negative = inhibition is on record?
The activity change, negative = inhibition was inconclusive: -18.6%.

For O=C(Nc1nc(-c2ccccc2)cs1)c1ccco1, which activity change, negative = inhibition is on record?
The activity change, negative = inhibition was inconclusive: 6.7%.

For Cc1ccc(S(=O)(=O)NC(=O)c2cccc(C)c2)cc1, which activity change, negative = inhibition is on record?
Its activity change, negative = inhibition is inconclusive: 12.7%.

With O=C1CC(c2ccc(F)cc2)Cc2nc(NCC3CCCO3)ncc21 (centres undefined) as the molecule, how does the activity change, negative = inhibition read?
The activity change, negative = inhibition was inconclusive: 22.9%.

With c1ccc(CCc2nn3c(Cn4cnc5ccccc54)nnc3s2)cc1 as the molecule, how does the “activity change, negative = inhibition” value read?
The value was inactive: 1.92%.

Which “activity change, negative = inhibition” value does the source give for O=[N+]([O-])c1ccc(N2CCN(CC3CCCCC3)CC2)cc1 here?
The value was inactive: -2%.

Which activity change, negative = inhibition does the source give for COc1ccc(CNCc2c(O)c(Cl)cc3c(C)c(C)c(=O)oc23)c(OC)c1 here?
Its activity change, negative = inhibition is inconclusive: -1.39%.

With COc1cc(C)nc2nc(SCc3ccccc3)nn12 as the molecule, how does the activity change, negative = inhibition read?
The activity change, negative = inhibition was inconclusive: 4.33%.

Which Potency does the source give for COc1ccc(NC(=O)CSc2nnc(CNC(=O)c3ccco3)o2)c(OC)c1 here?
Its Potency is inconclusive: 13 µM [rising, partial curve, poor fit].

Which “activity change, negative = inhibition” value does the source give for CCn1c(-c2ccco2)nc2ccccc21 here?
The value was inactive: -4.44%.

With N#Cc1cccc(C(=O)Nc2ccccc2C(=O)NC2CC2)c1 as the molecule, how does the “activity change, negative = inhibition” value read?
Its value is inactive: 1.27%.

Which Potency does the source give for O=C(O)c1ccc2nc(-c3cc4cccc(O)c4oc3=O)[nH]c2c1 here?
The Potency was inconclusive: 0.251 µM [rising, full curve, poor fit].

Which “activity change, negative = inhibition” value does the source give for CCCSc1nnc(N2C(=O)C(O)=C(C(=O)c3ccco3)C2c2ccccc2F)s1 (centres undefined) here?
Its value is inactive: 6.2%.

With CC1(C)NC(=O)N(CC(O)COc2ccccc2C(=O)Nc2ccccc2)C1=O (centres undefined) as the molecule, how does the Potency read?
Its Potency is inconclusive: 6.51 µM [rising, single point].

Which “activity change, negative = inhibition” value does the source give for O=C(CCCOC(=O)c1ccc(O)cc1O)c1ccc(Br)cc1 here?
The value was inactive: -8.35%.

For O=C(O)c1cccc(Nc2ncnc3c2cnn3-c2ccccc2)c1, which Potency is on record?
Its Potency is inconclusive: 6.51 µM [falling, single point].

Which activity change, negative = inhibition does the source give for CCOC(=O)C1CCN(S(=O)(=O)c2cc(Cl)c(C)cc2OC)CC1 here?
Its activity change, negative = inhibition is inconclusive: 4.27%.

For COc1cc2c(cc1OC)CN(C(=O)CSc1ccccc1C)CC2, which “activity change, negative = inhibition” value is on record?
Its value is inactive: 0.28%.

For CC(C)c1nc2oc3ccccc3c(=O)c2c(=O)n1-c1ccccc1, which activity change, negative = inhibition is on record?
Its activity change, negative = inhibition is inconclusive: 411%.

Which activity change, negative = inhibition does the source give for O=C(CSc1nc2c(sc3ccccc32)c(=O)n1Cc1ccco1)NCC1CCCO1 (centres undefined) here?
Its activity change, negative = inhibition is inconclusive: 11.1%.

With CC(C)CCn1c(Sc2nc3ccccc3o2)nc2c1c(=O)[nH]c(=O)n2C as the molecule, how does the Potency read?
The Potency was inconclusive: 5.8 µM [falling, partial curve].

With CC(C)COc1ccc(C(=O)OCC(=O)NCc2cccs2)cc1 as the molecule, how does the Potency read?
The Potency was inconclusive: 32.6 µM [falling, partial curve, poor fit].

Which activity change, negative = inhibition does the source give for CC1CC(C)CN(C(=O)COC(=O)/C=C/c2ccco2)C1 (centres undefined) here?
Its activity change, negative = inhibition is inconclusive: 5.47%.

For CCN(C(=O)COC(=O)c1cccc(-n2cnnn2)c1)C1CCCCC1, which “activity change, negative = inhibition” value is on record?
The value was inactive: 1.67%.

For Cc1ccc(C(=O)NC(=S)Nc2cc(C(F)(F)F)ccc2Cl)cc1, which “activity change, negative = inhibition” value is on record?
The value was inactive: 10.9%.

For Cc1ccccc1NC(=S)N(CCc1c(C)[nH]c2ccc(F)cc12)Cc1cccnc1, which activity change, negative = inhibition is on record?
The activity change, negative = inhibition was inconclusive: -8.4%.

Which “activity change, negative = inhibition” value does the source give for CC(C)C[C@H](NC(=O)N1CCn2c1nc1ccccc12)C(=O)NCc1ccccc1 here?
Its value is inactive: 0.0836%.

For Cn1c2c(c(=O)n(C)c1=O)CN(Cc1ccc3c(c1)OCO3)CN2, which activity change, negative = inhibition is on record?
The activity change, negative = inhibition was inconclusive: -14%.

Which activity change, negative = inhibition does the source give for CCOc1cc(/C=C/C(=O)c2ccc(OC)c(CN3CCOCC3)c2)cc(Br)c1O here?
The activity change, negative = inhibition was inconclusive: -22.4%.

With CCN(CC)C(=O)[C@H]1C[C@H](CC(=O)NCCCOC)C(=O)N2CCc3c([nH]c4cc(CCC(=O)N(C)C)ccc34)[C@]12C as the molecule, how does the activity change, negative = inhibition read?
The activity change, negative = inhibition was inconclusive: 1.26%.

For CC(C)NS(=O)(=O)c1ccc(NC(=O)C(C)OC(=O)CCC2CCCC2)cc1 (centres undefined), which “activity change, negative = inhibition” value is on record?
The value was inactive: 0.411%.

With O=C(CSc1nc2ccccc2c(=O)n1-c1ccc(F)cc1F)Nc1ccc(N2CCOCC2)cc1 as the molecule, how does the activity change, negative = inhibition read?
The activity change, negative = inhibition was inconclusive: -6.82%.
